Patent EP3912994A1
Results are given in words; binding and its absence hold for the method and conditions named. Binding seen in cells or lysates may run through a third protein. Here binding means that the protein was enriched with, or labelled near, the bait; the list need not be complete.

Protein sequences, listed by entry. Tags and fused reporters are not part of them. Residues count along the entry.
UniProt Q80YX1, residues 23-2110: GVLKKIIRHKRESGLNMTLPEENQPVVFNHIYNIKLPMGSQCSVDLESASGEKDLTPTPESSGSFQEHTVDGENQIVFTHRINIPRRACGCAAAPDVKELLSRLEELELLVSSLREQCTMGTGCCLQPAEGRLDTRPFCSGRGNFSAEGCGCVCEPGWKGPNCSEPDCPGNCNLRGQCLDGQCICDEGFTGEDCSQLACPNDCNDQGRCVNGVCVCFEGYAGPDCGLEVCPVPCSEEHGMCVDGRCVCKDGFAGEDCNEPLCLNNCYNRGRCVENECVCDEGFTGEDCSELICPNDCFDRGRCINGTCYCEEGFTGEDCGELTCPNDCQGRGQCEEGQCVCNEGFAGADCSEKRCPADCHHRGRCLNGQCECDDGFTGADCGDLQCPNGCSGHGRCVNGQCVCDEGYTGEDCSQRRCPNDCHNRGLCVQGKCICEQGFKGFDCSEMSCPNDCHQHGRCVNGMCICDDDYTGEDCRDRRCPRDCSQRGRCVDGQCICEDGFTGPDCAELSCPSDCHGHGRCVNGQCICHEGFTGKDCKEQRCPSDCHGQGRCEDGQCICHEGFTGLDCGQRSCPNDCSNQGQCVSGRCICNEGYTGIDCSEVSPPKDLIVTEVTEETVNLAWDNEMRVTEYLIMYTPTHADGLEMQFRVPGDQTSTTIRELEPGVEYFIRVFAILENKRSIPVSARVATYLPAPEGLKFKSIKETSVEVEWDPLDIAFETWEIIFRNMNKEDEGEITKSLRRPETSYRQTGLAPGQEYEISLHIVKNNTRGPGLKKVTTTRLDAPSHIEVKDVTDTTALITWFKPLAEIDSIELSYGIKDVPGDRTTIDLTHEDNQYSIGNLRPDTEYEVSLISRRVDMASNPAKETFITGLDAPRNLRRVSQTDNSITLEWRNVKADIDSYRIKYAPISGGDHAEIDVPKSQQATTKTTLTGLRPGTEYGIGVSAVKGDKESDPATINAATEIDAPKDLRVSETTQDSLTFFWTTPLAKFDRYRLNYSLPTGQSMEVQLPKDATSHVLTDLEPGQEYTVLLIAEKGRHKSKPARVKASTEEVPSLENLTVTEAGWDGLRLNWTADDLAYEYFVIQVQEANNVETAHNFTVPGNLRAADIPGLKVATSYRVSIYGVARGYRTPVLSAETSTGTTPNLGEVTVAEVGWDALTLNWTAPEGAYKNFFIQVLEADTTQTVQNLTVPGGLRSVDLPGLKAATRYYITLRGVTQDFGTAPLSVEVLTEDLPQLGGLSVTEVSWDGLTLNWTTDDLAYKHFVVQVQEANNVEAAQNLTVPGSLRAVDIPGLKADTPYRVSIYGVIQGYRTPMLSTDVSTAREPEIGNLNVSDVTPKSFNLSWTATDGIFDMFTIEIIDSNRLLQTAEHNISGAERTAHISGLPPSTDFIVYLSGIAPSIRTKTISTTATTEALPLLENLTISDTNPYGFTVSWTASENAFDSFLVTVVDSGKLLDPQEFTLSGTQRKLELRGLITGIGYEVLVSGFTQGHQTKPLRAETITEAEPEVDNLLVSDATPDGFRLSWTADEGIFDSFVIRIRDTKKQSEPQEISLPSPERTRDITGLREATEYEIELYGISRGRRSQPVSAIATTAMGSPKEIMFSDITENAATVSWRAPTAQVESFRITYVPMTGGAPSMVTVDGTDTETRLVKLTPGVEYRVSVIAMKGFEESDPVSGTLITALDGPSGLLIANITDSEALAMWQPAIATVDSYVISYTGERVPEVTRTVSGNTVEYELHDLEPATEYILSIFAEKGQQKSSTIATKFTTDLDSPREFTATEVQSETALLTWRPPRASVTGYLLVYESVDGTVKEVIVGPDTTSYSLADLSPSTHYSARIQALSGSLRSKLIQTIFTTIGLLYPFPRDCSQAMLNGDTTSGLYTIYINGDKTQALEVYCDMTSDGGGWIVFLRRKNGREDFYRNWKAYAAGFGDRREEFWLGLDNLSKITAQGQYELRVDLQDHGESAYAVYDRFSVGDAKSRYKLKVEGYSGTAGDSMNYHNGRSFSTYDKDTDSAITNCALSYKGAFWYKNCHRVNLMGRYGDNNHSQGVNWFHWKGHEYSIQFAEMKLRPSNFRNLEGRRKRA

B1: Sushi-repeat-containing protein SRPX (protein, UniProt Q9R0M3 31-464, looked up)
chain: FPGSGDSPLEDDGVWYSHSLYKDTPWCSPIKVKYGDVYCRAPPGGYYKTALGTRCDIRCRKGYELHGSSQLICQSNKRWSDKVICKQKRCPTLTMPANGGFKCVDGAYFNSRCEYYCSPGYTLKGERTVTCMDNKAWSGRPASCVDLEPPRIKCPSVKERIAEPNKLTVRVSWESPEGRDTADGILTDVILKGLPPGSNFPEGDHKIEYTVYDRAENKGTCKFRVKVRVRRCGKLNAPENGYMKCSSDGDNYGATCEFSCIGGYELQGSPARVCQSNLAWSGTEPSCAAMNVNVGVRTAAALLDQFYEKRRLLIVSTPTARNLLYRLQLGMLQQAQCGLDLRHVTVVELVGVFPTLIGRIRAKIMPPALALQLRLLLRIPLYSFSMVVVDKHGMDKERYVSLVTPMALFNLIDTFPLRKEEMILQAEMGQTCNV
B2: Transforming growth factor-beta-induced protein ig-h3 (protein, UniProt P82198 24-683, looked up)
chain: GPAKSPYQLVLQHSRLRGRQHGPNVCAVQKVIGTNKKYFTNCKQWYQRKICGKSTVISYECCPGYEKVPGEKGCPAALPLSNLYETMGVVGSTTTQLYTDRTEKLRPEMEGPGSFTIFAPSNEAWSSLPAEVLDSLVSNVNIELLNALRYHMVDRRVLTDELKHGMTLTSMYQNSNIQIHHYPNGIVTVNCARLLKADHHATNGVVHLIDKVISTITNNIQQIIEIEDTFETLRAAVAASGLNTVLEGDGQFTLLAPTNEAFEKIPAETLNRILGDPEALRDLLNNHILKSAMCAEAIVAGMSMETLGGTTLEVGCSGDKLTINGKAVISNKDILATNGVIHFIDELLIPDSAKTLLELAGESDVSTAIDILKQAGLDTHLSGKEQLTFLAPLNSVFKDGVPRIDAQMKTLLLNHMVKEQLASKYLYSGQTLDTLGGKKLRVFVYRNSLCIENSCIAAHDKRGRFGTLFTMDRMLTPPMGTVMDVLKGDNRFSMLVAAIQSAGLMEILNREGVYTVFAPTNEAFQAMPPEELNKLLANAKELTNILKYHIGDEILVSGGIGALVRLKSLQGDKLEVSSKNNVVSVNKEPVAETDIMATNGVVYAINTVLQPPANRPQERGDELADSALEIFKQASAYSRAAQRSVRLAPVYQRLLERMKH
B3: Spondin-1 (protein, UniProt Q8VCC9 29-807, looked up)
chain: FSDETLDKVTKSEGYCSRILRAQGTRREGYTEFSLRVEGDPDFYKPGSSYRVTLSAAPPSYFRGFTLIALKENQEGDKEEDHAGTFQIIDEEETQFMSNCPVAVTESTPRRRTRIQVFWIAPPTGTGCVILKASIVQKRIIYFQDEGSLTKKLCEQDPTLDGVTDRPILDCCACGTAKYRLTFYGNWSEKTHPKDYPRRANHWSAIIGGSHSKNYVLWEYGGYASEGVKQVAELGSPVKMEEEIRQQSDEVLTVIKAKAQWPAWQPVNVRAAPSAEFSVDRTRHLMSFLTMMGPSPDWNVGLSAEDLCTKECGWVQKVVQDLIPWDAGTDSGVTYESPNKPTIPQEKIRPLTSLDHPQSPFYDPEGGSITQVARVVIERIARKGEQCNIVPDNVDDIVADLAPEEKDEDDTPETCIYSNWSPWSACSSSTCEKGKRMRQRMLKAQLDLSVPCPDTQDFQPCMGPGCSDEDGSTCTMSEWITWSPCSVSCGMGMRSRERYVKQFPEDGSVCMLPTEETEKCTVNEECSPSSCLVTEWGEWDDCSATCGMGMKKRHRMVKMSPADGSMCKAETSQAEKCMMPECHTIPCLLSPWSEWSDCSVTCGKGMRTRQRMLKSLAELGDCNEDLEQAEKCMLPECPIDCELSEWSQWSECNKSCGKGHMIRTRTIQMEPQFGGVPCPETVQRKKCRTRKCLRSPSVQKLRWREARESRRSEQLREESDGEQFPGCRMRPWTAWSECTKLCGGGIQERYMTVKKRFKSSQFTSCKDKKEIRACNVHPC

Each binder was assayed against murine strep-tagged TNC (mTNC) (mouse) (UniProt Q80YX1) (assay: co-purification with recombinant mTNC, 1 M NaCl eluate, mass spectrometry).

binding, binds:
B1, B2, B3
